PubChem BioAssay AID652243 | Drosophila RNAi Screening Center | 2013
The screen tested about 24,000 reagents; below is a random part of those with a known target gene and a result. In the full data, 246 (1%) were called active. 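Plates not normalised; calls are printed but the firefly/Renilla ratio behind them is not deposited; fold cut for lowering reported inconsistently.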 The raw values are shown without normalisation. Not given: the amount of reagent.

Screen: 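Fly regulators of androgen-dependent reporter output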 (primary screen)
Cell system: Drosophila S2R+ cells
Reagent: long dsRNA against Drosophila genes
Duration: 72 h (48 h, then 24 h hormone)
Conditions: synthetic androgen R1881 at 10 nM for 24 h
Measurement: 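Per-well raw luminescence of the androgen-driven firefly reporter and of the Renilla control, two replicates each, without normalisation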
Direction: firefly reporter light: higher = more light from androgen-responsive reporter; Renilla control light: higher = more constitutive control signal (cell number, transfection)
Rule for the call: 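Hit when the log firefly-to-Renilla ratio dropped or increased by a fixed fold versus the mean of GFP or LacZ controls across duplicate plates; lowering cut given as 1.5 and as 3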
Meaning of the calls: active = hit: reporter lowered or raised; inactive = no hit

| target gene | DRSC id | firefly reporter light, replicate 1 | firefly reporter light, replicate 2 | Renilla control light, replicate 1 | Renilla control light, replicate 2 | Call |
| --- | --- | --- | --- | --- | --- | --- |
| Cpsf100 (Cleavage and polyadenylation specificity factor 100) | DRSC14146 | 1.39e5 | 1.03e5 | 1.01e6 | 7.04e5 | inactive |
| Cpsf100 (Cleavage and polyadenylation specificity factor 100) | DRSC28396 | 3.79e5 | 8.69e5 | 6.45e5 | 1.49e6 | inactive |
| 14-3-3epsilon | DRSC16370 | 73149 | 62296 | 1.35e6 | 1.05e6 | inactive |
| DZIP1 | DRSC14620 | 1.95e5 | 2.56e5 | 2.74e6 | 2.65e6 | inactive |
| RpL17 (Ribosomal protein L17) | DRSC18293 | 47438 | 65967 | 5.88e5 | 4.34e5 | inactive |
| RpL17 (Ribosomal protein L17) | DRSC29971 | 2.46e5 | 3.61e5 | 9.16e5 | 8.50e5 | inactive |
| sll (slalom) | DRSC16271 | 90312 | 70025 | 3.84e5 | 3.85e5 | inactive |
| sll (slalom) | DRSC29864 | 1.11e6 | 1.01e6 | 1.17e6 | 1.27e6 | inactive |
| COX7C (Cytochrome c oxidase subunit 7C) | DRSC06831 | 2.93e5 | 3.31e5 | 2.51e6 | 2.55e6 | inactive |
| Vps45 (Vacuolar protein sorting 45) | DRSC16398 | 37159 | 62910 | 1.39e6 | 1.21e6 | inactive |
| CG34136 | DRSC38614 | 3.57e5 | 3.16e5 | 1.04e6 | 7.12e5 | inactive |
| CG10514 | DRSC14249 | 1.12e5 | 1.47e5 | 1.67e6 | 1.71e6 | inactive |
| CG10514 | DRSC28098 | 3.71e5 | 4.65e5 | 1.53e6 | 1.77e6 | inactive |
| Hgsnat (Heparan-alpha-glucosaminide N-acetyltransferase) | DRSC18405 | 70423 | 65295 | 7.31e5 | 5.73e5 | inactive |
| Hgsnat (Heparan-alpha-glucosaminide N-acetyltransferase) | DRSC24716 | 5.59e5 | 8.45e5 | 1.12e6 | 1.27e6 | inactive |
| dpr3 (defective proboscis extension response 3) | DRSC00395 | 68015 | 42880 | 3.27e5 | 3.10e5 | inactive |
| dpr3 (defective proboscis extension response 3) | DRSC00396 | 93470 | 56146 | 7.81e5 | 5.78e5 | inactive |
| CG3491 | DRSC01934 | 94925 | 1.17e5 | 1.13e6 | 1.35e6 | inactive |
| Elp3 (Elongator complex protein 3) | DRSC00448 | 89766 | 1.03e5 | 5.54e5 | 9.85e5 | inactive |
| Slimp (Seryl-tRNA synthetase-like insect mitochondrial protein) | DRSC13656 | 39477 | 59113 | 71167 | 93818 | inactive |
| osi (orsai) | DRSC02931 | 3.80e5 | 3.52e5 | 1.99e6 | 1.75e6 | inactive |
| AhcyL2 (Adenosylhomocysteinase like 2) | DRSC14107 | 83767 | 93490 | 1.44e6 | 1.65e6 | inactive |
| Spc105R (Spc105-related) | DRSC11663 | 3.63e5 | 2.44e5 | 2.46e6 | 2.49e6 | inactive |
| Spc105R (Spc105-related) | DRSC39104 | 4.92e5 | 4.43e5 | 7.37e5 | 7.97e5 | inactive |

3 entries from above, arranged by “Renilla control light, replicate 1”, low to high.
| target gene | DRSC id | firefly reporter light, replicate 1 | firefly reporter light, replicate 2 | Renilla control light, replicate 1 | Renilla control light, replicate 2 | Call |
| --- | --- | --- | --- | --- | --- | --- |
| sll (slalom) | DRSC16271 | 90312 | 70025 | 3.84e5 | 3.85e5 | inactive |
| RpL17 (Ribosomal protein L17) | DRSC18293 | 47438 | 65967 | 5.88e5 | 4.34e5 | inactive |
| RpL17 (Ribosomal protein L17) | DRSC29971 | 2.46e5 | 3.61e5 | 9.16e5 | 8.50e5 | inactive |
